PubChem BioAssay AID504793 | Drosophila RNAi Screening Center – 2011

Screen: 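Whole-genome screen for parts of the DNA damage checkpoint at G2/M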 (primary screen)
Cell system: Drosophila S2R+ cells
Reagent: long dsRNA against Drosophila genes, about 0.25 µg dsRNA per well
Timing: 4 days of dsRNA, then 4 hours of drug before read-out
Treatment: doxorubicin 0.5 µM for 4 hours to cause double-strand breaks, in cells also given a low, harmless dose of dsRNA against nbs to sensitise the assay
Measured: 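Per-well count of mitotic cells stained for phospho-histone H3 after doxorubicin exposure, used as mitotic index; counts are raw and not normalised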
Direction: mitotic cells: higher = more cells in mitosis, weaker G2 arrest
Call rule: 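a call needs confirmation in secondary tests, with other dsRNAs and a check of mitotic timing without damage, not just a high primary count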
Calls: active = confirmed in follow-up tests; inactive = not confirmed
The screen tested about 23,000 reagents; below is a random part of those that have a named target and a result. In the full data, 62 (0.27%) are marked active. 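Calls come from follow-up tests whose scores are not deposited, so confirmed genes may have low counts here; counts are not normalised per plate.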 Raw values vary from plate to plate and are shown uncorrected. Names joined by + are all predicted targets of the reagent.

Gene | amplicon | mitotic cells, replicate 1 | call
pes | DRSC03033 | 6 | inactive
pes | DRSC25954 | 3 | inactive
Arts + Apl | DRSC10349 | 3 | inactive
Grx3 | DRSC02966 | 4 | inactive
betaGlu | DRSC15419 | 5 | inactive
betaGlu | DRSC24889 | 5 | inactive
CG15546 | DRSC15084 | 23 | inactive
CG15546 | DRSC22831 | 24 | inactive
CG15546 | DRSC28899 | 6 | inactive
brv2 | DRSC10226 | 5 | inactive
brv2 | DRSC29796 | 7 | inactive
CG13527 | DRSC04169 | 3 | inactive
CG10588 | DRSC11628 | 6 | inactive
blow | DRSC07586 | 8 | inactive
blow | DRSC27716 | 3 | inactive
RpL36A | DRSC03055 | 8 | inactive
RpL36A | DRSC27375 | 6 | inactive
ovm + CG31975 | DRSC22146 | 15 | inactive
CG31550 | DRSC12197 | 7 | inactive
CG31550 | DRSC12198 | 6 | inactive
CG31550 | DRSC29447 | 5 | inactive
CG11562 | DRSC00316 | 3 | inactive
Gr59d | DRSC22553 | 11 | inactive
CG6527 | DRSC10659 | 6 | inactive
128up | DRSC05027 | 9 | inactive
128up | DRSC24366 | 1 | inactive
CG31191 | DRSC15214 | 12 | inactive
CG42319 | DRSC06645 | 9 | inactive
CG42319 | DRSC06646 | 4 | inactive
CG42319 | DRSC22426 | 10 | inactive
CG42319 | DRSC26059 | 3 | inactive
Klp68D | DRSC11206 | 8 | inactive
Klp68D | DRSC29890 | 7 | inactive
Eogt | DRSC00727 | 6 | inactive
Eogt | DRSC26180 | 1 | inactive
Nedd4 | DRSC11234 | 4 | inactive
Nedd4 | DRSC21548 | 19 | inactive
Nedd4 | DRSC26365 | 5 | inactive
mRpS33 | DRSC14239 | 8 | inactive
fsd | DRSC06166 | 2 | inactive
CG2278 | DRSC18226 | 8 | inactive
CG31922 | DRSC21703 | 7 | inactive
CG31922 | DRSC26533 | 11 | inactive
CCHa2-R | DRSC04870 | 9 | inactive
CCHa2-R | DRSC04871 | 5 | inactive
Rpn11 | DRSC03422 | 54 | inactive
ACOX1 | DRSC05941 | 10 | inactive
ACOX1 | DRSC24604 | 5 | inactive

13 entries from above, sorted by “mitotic cells, replicate 1”, descending.
Gene | amplicon | mitotic cells, replicate 1 | call
Rpn11 | DRSC03422 | 54 | inactive
Nedd4 | DRSC21548 | 19 | inactive
CG31922 | DRSC26533 | 11 | inactive
ACOX1 | DRSC05941 | 10 | inactive
CCHa2-R | DRSC04870 | 9 | inactive
mRpS33 | DRSC14239 | 8 | inactive
CG2278 | DRSC18226 | 8 | inactive
CG31922 | DRSC21703 | 7 | inactive
Nedd4 | DRSC26365 | 5 | inactive
CCHa2-R | DRSC04871 | 5 | inactive
ACOX1 | DRSC24604 | 5 | inactive
Nedd4 | DRSC11234 | 4 | inactive
fsd | DRSC06166 | 2 | inactive

Further reagents follow.
Gene | amplicon | mitotic cells, replicate 1 | call
sigmar | DRSC04449 | 6 | inactive
Spt | DRSC07123 | 2 | inactive
Spt | DRSC29487 | 10 | inactive
xit | DRSC18364 | 7 | inactive
CG14877 | DRSC15001 | 2 | inactive
CG14877 | DRSC30033 | 3 | inactive
Vha16-1 | DRSC05020 | 5 | inactive
CG17600 | DRSC20640 | 5 | inactive
CG17600 | DRSC22753 | 6 | inactive
CG17600 | DRSC27203 | 4 | inactive
CG3961 | DRSC10390 | 8 | inactive
CG3961 | DRSC10391 | 8 | inactive
Sec15 | DRSC16179 | 5 | inactive
Sec15 | DRSC29670 | 4 | inactive
CG6282 | DRSC10616 | 7 | inactive
CG6282 | DRSC29524 | 3 | inactive
CG14892 | DRSC15014 | 8 | inactive
CG12194 | DRSC00345 | 3 | inactive
CG12194 | DRSC24918 | 10 | inactive
gammaSnap2 | DRSC15992 | 9 | inactive
iav | DRSC18363 | 12 | inactive
iav | DRSC25119 | 4 | inactive
Su(z)12 | DRSC11293 | 6 | inactive
Su(z)12 | DRSC26081 | 2 | inactive
dj | DRSC12625 | 6 | inactive
dj | DRSC25525 | 8 | inactive
CG15011 | DRSC08464 | 8 | inactive
Smyd4-1 | DRSC06785 | 2 | inactive
Smyd4-1 | DRSC27142 | 9 | inactive
CG5381 | DRSC02852 | 4 | inactive
CG4660 | DRSC18378 | 14 | inactive
CG14731 | DRSC14952 | 9 | inactive
CG8160 | DRSC07086 | 12 | inactive
CG8160 | DRSC21434 | 4 | inactive
CG8160 | DRSC24130 | 8 | inactive
CG14262 | DRSC14757 | 16 | inactive
CG8072 | DRSC10960 | 9 | inactive
Ir67b | DRSC09876 | 3 | inactive
alpha-Est2 | DRSC12614 | 4 | inactive
S-Lap3 | DRSC10956 | 5 | inactive
S-Lap3 | DRSC23958 | 3 | inactive
CG14005 | DRSC02337 | 5 | inactive
NaCP60E | DRSC04307 | 4 | inactive
NaCP60E | DRSC21351 | 14 | inactive
NaCP60E | DRSC26120 | 5 | inactive
arg | DRSC18737 | 13 | inactive
arg | DRSC29488 | 6 | inactive
PPP4R2r | DRSC18695 | 11 | inactive
PPP4R2r | DRSC21503 | 5 | inactive
PPP4R2r | DRSC27825 | 7 | inactive
LeuRS | DRSC00581 | 4 | inactive
CG5787 | DRSC02895 | 2 | inactive
CG5787 | DRSC28731 | 4 | inactive
Fgop2 | DRSC02016 | 5 | inactive
E(spl)m8-HLH | DRSC16654 | 9 | inactive
E(spl)m8-HLH | DRSC28065 | 3 | inactive
RNaseX25 | DRSC11259 | 6 | inactive
RNaseX25 | DRSC29835 | 8 | inactive
eEF1gamma | DRSC16659 | 5 | inactive
eEF1gamma | DRSC23655 | 5 | inactive
CG33281 | DRSC00421 | – | inactive
Hrd3 | DRSC14156 | 5 | inactive
